Laboratory results from the supplement of paper PMC4604168 (melanoma cell lines).
The list shows a part of the results. Many values rest on one well or one pass, so single values are uncertain.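 Cells were imaged in 1,536-well plates, and nuclei stained with an antibody against cleaved PARP were counted against all DNA-stained nuclei to give the apoptosis fraction. Screening doses were chosen to leave most cells alive, and resting and induced cleaved-PARP levels differ strongly between cell lines.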

Tested on: LOXIMVI
Assay: cleaved PARP positive nuclei fraction relative to DMSO control; melanoma cells; higher = more apoptosis
Conditions: library dose: low library concentration; 72 h

Compound | cleaved PARP positive nuclei fraction
Cc1cc(Nc2cc(N3CCN(C)CC3)nc(Sc3ccc(NC(=O)C4CC4)cc3)n2)n[nH]1 [Tozasertib] + Cc1ccc(NC(=O)c2cccc(N(C)C)c2)cc1NC(=O)c1ccc(O)cc1 [ZM336372] (first compound 0.006 µM, partner dose 2 µM) | 78.2%
CC[C@]1(O)C[C@H]2CN(CCc3c([nH]c4ccccc34)[C@@](C(=O)OC)(c3cc4c(cc3OC)N(C=O)[C@H]3[C@@](O)(C(=O)OC)[C@H](OC(C)=O)[C@]5(CC)C=CCN6CC[C@]43[C@@H]65)C2)C1 [vincristine] + CC1(C)NC(=O)N(c2ccc([N+](=O)[O-])c(C(F)(F)F)c2)C1=O [nilutamide] (first compound 0.0001 µM, partner dose 1 µM) | 47.4%
N#CC[C@H](C1CCCC1)n1cc(-c2ncnc3[nH]ccc23)cn1 [ruxolitinib] + CO[C@@H]1[C@H](N(C)C(=O)c2ccccc2)C[C@H]2O[C@]1(C)n1c3ccccc3c3c4c(c5c6ccccc6n2c5c31)C(=O)NC4 [Midostaurin] (first compound 1 µM, partner dose 0.08 µM) | 59%
CCCCCCCCCCCCCCCCCCOP(=O)([O-])OC1CC[N+](C)(C)CC1 [Perifosine] + COc1cc2c(Oc3ccc4[nH]c(C)cc4c3F)ncnc2cc1OCCCN1CCCC1 [cediranib] (first compound 0.4 µM, partner dose 0.4 µM) | 19.9%
N#CC[C@H](C1CCCC1)n1cc(-c2ncnc3[nH]ccc23)cn1 [ruxolitinib] + COc1cc2c(Oc3ccc4[nH]c(C)cc4c3F)ncnc2cc1OCCCN1CCCC1 [cediranib] (first compound 1 µM, partner dose 0.4 µM) | 101%
